Several values for one entry are separate records, joined by “and”; a condition that tells them apart may be missing. Equal entries are not always repeated. The list shows a part of the results. For some assays here: Construct or isoform of the protein are uncertain.
Columns and labels:
Experiment in all cases: protein microarray (ProtoArray v5.0), streptavidin-Alexa Fluor 647
Details in all cases: 3'-biotin; 20 mM Tris (pH 7.5), 5 mM MgCl2, 100 mM KCl, 0.1% Tween-20, A/T-rich and random oligonucleotide blockers; temperature not stated; high values mean tight binding
[1] = tested on: PPM1M (human)
[2] = tested on: PPP1R1C (human)
[3] = tested on: PPP1R2 (human)
[4] = tested on: PPP1R3C (human)
[5] = tested on: PPP2R1B (human)
[6] = tested on: PPP2R2C (human)
[7] = tested on: PPP2R4 (human)
[8] = tested on: PPP2R5B (human)
[9] = tested on: PPP3R2 (human)
[10] = molecular target: T1, PPT1 (UniProt P50897)
T1 sequence: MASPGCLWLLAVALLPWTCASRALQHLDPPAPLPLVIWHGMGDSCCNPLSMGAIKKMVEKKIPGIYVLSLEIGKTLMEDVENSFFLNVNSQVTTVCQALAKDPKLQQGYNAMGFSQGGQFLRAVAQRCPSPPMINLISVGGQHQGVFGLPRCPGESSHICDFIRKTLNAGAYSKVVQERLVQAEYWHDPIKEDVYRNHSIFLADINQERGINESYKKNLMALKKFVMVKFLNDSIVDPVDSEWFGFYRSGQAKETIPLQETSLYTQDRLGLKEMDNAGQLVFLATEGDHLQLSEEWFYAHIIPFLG

[11] = tested on: PPT2 (human)
[12] = tested on: PQLC2 (human)
[13] = tested on: PRAME (human)
[14] = tested on: PRAP1 (human)
[15] = tested on: PRCP (human)
[16] = tested on: PRDX2 (human)
[17] = tested on: PRDX3 (human)
[18] = tested on: PRDX4 (human)
[19] = tested on: PRELI domain-containing protein 2 (human)
[20] = tested on: PRELID1 (human)

GGGAGGCTGAGGCAGG [G4-1 biotinylated (PQS2)]
binding signal [1]: -0.302 z-score
binding signal [2]: -0.29 z-score
binding signal [3]: -0.339 z-score
binding signal [4]: -0.314 z-score
binding signal [5]: -0.32 z-score
binding signal [6]: -0.348 z-score
binding signal [7]: -0.324 z-score and -0.274 z-score
binding signal [8]: -0.34 z-score
binding signal [9]: -0.338 z-score
binding signal [10]: -0.33 z-score
binding signal [11]: -0.359 z-score
binding signal [12]: -0.263 z-score
binding signal [13]: -0.302 z-score
binding signal [14]: -0.298 z-score
binding signal [15]: -0.341 z-score
binding signal [16]: -0.372 z-score
binding signal [17]: -0.35 z-score
binding signal [18]: -0.297 z-score
binding signal [19]: -0.342 z-score
binding signal [20]: -0.315 z-score
